Assay results from publication PMC8297976.
Results are given in words; binding and its absence hold for the method and conditions named. Binding seen in cells or lysates may run through a third protein. Some entries that bind do so weakly or less than the wild type.

The chains behind the UniProt entries cited, without tags or fusion partners.
UniProt F1MUZ3: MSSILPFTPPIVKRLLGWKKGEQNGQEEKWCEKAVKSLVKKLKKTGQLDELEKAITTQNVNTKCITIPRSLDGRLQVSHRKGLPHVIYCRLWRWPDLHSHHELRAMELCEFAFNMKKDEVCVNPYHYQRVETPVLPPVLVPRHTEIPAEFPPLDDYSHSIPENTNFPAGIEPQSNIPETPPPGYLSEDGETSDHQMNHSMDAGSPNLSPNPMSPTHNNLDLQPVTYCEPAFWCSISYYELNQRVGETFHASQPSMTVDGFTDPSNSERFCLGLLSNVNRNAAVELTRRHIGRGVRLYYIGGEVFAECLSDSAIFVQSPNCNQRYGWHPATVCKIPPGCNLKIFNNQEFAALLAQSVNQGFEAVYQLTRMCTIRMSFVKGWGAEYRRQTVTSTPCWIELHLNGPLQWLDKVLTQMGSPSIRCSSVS
UniProt Q1W668: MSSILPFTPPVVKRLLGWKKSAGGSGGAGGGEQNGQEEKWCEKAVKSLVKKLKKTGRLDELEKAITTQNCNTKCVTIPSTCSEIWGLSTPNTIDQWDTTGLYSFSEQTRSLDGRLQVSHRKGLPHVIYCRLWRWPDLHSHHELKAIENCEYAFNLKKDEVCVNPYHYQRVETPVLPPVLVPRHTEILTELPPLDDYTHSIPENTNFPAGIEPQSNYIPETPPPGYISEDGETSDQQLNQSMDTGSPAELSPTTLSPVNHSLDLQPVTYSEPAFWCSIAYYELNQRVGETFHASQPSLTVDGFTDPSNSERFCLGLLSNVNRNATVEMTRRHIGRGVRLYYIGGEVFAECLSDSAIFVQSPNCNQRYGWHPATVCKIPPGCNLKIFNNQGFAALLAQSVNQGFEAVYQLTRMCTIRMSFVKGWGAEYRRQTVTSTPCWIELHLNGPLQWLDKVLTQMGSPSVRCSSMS

Molecular target: T1, Ufm1 binding protein 1 (Ufbp1) (bovine (endogenous in liver tissue of dairy cows)) (UniProt Q1LZB0)
T1 sequence: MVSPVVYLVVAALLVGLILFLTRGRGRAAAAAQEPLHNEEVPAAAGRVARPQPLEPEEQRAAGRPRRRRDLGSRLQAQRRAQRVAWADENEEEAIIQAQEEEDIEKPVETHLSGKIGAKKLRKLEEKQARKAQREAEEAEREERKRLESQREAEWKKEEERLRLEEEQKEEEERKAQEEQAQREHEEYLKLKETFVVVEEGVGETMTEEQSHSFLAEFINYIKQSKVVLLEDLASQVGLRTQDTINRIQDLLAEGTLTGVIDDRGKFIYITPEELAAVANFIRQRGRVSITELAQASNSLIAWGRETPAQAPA
Assay: co-IP; endogenous proteins; lysates of bovine normal liver tissue incubated with the antibody at 4°C overnight, then protein A/G plus agarose beads for 4 h; immunoblotting; IgG as negative control

Substance	binding
Smad3 (from UniProt F1MUZ3 1-425)	binds
Smad2 (from UniProt Q1W668 1-467)	no binding
